Test results from patent publication US8486960B2, “Formulations and methods for vascular permeability-related diseases or conditions” (Santen Pharmaceutical Co., Ltd., priority 2006, dated 2013).
For at least one compound, name, drawing or mass did not settle the structure.

Test system: PAF-stimulated vasoconstriction of arterioles
Test: Arteriolar diameter (relative luminal diameter), PAF-stimulated vasoconstriction, hamster cheek pouch
Type: in vivo
Conditions: pretreatment with 500 μg/kg ip, PAF 10^−7 M topical, 3 animals per group

`CO[C@H]1C[C@@H]2CC[C@@H](C)[C@@](O)(O2)C(=O)C(=O)N2CCCC[C@H]2C(=O)O[C@H]([C@H](C)C[C@@H]2CC[C@@H](O)[C@H](OC)C2)CC(=O)[C@H](C)/C=C(\C)[C@@H](O)[C@@H](OC)C(=O)[C@H](C)C[C@H](C)/C=C/C=C/C=C/1C` [rapamycin] was tested, and the “effect on vasoconstrictor action of PAF (in words)” value was “did not attenuate the vasoconstrictor action of PAF”.
